Assay results from the supplement of paper PMC10849652.
The other results are listed elsewhere or left out.

Amino acid sequences for entries named in this document (tags omitted). A change or cut given only in a name is not applied to a line headed by its entry.
UniProt Q9H9Q2: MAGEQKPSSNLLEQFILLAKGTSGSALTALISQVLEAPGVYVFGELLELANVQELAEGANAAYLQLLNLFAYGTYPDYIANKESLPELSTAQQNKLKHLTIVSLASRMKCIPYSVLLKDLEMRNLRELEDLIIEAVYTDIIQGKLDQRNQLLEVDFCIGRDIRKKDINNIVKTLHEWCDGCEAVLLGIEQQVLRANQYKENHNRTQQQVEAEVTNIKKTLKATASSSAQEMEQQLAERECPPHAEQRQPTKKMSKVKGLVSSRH
UniProt Q9P000, whole entry, looked up: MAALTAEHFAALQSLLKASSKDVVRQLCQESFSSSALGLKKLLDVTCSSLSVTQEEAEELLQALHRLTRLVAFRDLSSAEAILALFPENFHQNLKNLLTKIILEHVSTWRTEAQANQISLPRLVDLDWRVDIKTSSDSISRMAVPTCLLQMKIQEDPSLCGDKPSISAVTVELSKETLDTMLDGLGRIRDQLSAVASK
UniProt Q9NQ92: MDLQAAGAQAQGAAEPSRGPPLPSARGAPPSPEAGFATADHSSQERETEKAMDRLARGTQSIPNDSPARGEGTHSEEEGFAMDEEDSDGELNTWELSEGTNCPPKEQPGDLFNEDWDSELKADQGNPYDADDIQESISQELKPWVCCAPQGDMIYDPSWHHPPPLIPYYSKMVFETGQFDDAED
UniProt Q86X83, whole entry, looked up: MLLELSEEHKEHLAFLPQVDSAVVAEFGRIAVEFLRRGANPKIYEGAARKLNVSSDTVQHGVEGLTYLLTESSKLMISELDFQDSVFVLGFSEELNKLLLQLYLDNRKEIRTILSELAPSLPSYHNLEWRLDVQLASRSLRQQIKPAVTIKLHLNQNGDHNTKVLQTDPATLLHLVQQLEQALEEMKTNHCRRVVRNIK
UniProt Q14019: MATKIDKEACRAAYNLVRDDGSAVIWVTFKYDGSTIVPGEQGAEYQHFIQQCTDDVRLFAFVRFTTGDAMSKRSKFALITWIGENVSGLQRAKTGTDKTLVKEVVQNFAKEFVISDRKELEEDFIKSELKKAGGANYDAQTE
UniProt P39060, whole entry, looked up: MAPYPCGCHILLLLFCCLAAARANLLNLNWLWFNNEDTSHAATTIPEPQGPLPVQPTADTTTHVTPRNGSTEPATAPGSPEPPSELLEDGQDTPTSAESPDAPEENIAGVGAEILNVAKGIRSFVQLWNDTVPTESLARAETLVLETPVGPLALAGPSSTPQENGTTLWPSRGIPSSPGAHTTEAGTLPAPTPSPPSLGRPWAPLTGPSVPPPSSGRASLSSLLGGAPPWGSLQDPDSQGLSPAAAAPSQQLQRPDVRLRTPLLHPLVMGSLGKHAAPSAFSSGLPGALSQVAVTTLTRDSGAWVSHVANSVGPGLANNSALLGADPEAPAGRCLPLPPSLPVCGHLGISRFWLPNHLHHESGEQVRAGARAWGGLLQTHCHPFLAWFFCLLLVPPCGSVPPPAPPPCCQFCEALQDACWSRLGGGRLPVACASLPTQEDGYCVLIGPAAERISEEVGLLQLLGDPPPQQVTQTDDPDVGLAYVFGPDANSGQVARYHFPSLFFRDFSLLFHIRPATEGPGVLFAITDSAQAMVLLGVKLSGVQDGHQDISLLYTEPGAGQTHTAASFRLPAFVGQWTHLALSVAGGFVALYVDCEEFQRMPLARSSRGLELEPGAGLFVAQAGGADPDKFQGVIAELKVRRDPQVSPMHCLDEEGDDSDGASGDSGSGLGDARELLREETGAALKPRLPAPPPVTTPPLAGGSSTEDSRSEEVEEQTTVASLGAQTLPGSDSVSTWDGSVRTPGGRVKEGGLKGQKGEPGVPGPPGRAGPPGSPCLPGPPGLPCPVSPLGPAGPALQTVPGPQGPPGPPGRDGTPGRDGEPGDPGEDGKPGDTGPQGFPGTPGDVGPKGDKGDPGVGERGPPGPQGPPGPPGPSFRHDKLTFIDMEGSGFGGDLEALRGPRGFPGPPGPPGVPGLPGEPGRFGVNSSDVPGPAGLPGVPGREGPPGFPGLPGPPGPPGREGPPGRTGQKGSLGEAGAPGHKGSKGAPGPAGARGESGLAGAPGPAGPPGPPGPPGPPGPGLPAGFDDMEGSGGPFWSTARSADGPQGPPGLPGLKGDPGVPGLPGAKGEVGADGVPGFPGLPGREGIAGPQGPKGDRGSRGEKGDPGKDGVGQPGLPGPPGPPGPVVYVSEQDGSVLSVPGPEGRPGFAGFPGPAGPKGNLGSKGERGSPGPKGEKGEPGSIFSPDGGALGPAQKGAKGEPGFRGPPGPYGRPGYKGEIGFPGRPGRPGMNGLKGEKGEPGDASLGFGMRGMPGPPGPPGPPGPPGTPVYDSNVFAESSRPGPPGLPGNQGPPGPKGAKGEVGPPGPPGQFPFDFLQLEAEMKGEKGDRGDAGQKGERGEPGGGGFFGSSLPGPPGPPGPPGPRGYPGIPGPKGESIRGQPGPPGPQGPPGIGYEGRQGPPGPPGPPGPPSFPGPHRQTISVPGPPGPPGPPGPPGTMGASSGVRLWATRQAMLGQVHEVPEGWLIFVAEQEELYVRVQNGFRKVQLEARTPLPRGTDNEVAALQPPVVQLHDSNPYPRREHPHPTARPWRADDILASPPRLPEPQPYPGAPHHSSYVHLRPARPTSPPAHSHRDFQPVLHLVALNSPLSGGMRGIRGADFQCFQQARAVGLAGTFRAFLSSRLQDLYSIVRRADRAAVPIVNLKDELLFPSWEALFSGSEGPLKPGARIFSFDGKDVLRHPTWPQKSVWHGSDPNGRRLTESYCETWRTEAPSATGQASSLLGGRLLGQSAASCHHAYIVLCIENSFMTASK
UniProt P15954, whole entry, looked up: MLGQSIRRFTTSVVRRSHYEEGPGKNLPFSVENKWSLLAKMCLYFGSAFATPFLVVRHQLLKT
UniProt Q9UBF2: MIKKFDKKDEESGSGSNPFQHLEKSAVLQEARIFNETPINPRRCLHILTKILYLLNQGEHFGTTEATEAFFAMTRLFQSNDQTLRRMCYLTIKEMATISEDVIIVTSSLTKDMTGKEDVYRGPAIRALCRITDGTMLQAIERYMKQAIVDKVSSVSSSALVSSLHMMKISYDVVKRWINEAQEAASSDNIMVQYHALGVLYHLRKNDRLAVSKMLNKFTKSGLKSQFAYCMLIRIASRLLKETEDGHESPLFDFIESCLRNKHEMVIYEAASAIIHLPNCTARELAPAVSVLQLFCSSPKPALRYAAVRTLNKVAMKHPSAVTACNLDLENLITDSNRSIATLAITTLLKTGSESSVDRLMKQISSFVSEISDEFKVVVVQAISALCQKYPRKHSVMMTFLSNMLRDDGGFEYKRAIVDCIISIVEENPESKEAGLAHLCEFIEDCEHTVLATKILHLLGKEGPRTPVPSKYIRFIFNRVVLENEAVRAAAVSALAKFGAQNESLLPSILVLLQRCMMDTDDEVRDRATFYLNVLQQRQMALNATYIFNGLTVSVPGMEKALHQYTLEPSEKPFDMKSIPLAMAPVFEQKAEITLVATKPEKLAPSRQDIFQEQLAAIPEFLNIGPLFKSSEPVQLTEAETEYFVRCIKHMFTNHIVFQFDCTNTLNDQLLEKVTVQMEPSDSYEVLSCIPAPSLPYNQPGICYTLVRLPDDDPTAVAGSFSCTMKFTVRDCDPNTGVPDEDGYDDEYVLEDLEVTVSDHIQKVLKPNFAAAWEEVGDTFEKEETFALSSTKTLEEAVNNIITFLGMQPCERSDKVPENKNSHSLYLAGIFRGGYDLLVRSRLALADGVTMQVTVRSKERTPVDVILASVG
UniProt P78560: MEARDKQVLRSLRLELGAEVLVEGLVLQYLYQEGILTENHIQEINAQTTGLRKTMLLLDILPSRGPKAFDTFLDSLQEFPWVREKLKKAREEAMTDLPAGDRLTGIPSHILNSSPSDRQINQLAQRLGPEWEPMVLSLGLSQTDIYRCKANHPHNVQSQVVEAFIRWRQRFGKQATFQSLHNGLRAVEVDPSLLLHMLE
UniProt Q9P003: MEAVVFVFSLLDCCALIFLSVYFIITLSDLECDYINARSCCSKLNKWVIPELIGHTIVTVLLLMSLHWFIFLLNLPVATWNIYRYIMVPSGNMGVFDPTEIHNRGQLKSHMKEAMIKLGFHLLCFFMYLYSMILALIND
UniProt Q9H0A8, whole entry, looked up: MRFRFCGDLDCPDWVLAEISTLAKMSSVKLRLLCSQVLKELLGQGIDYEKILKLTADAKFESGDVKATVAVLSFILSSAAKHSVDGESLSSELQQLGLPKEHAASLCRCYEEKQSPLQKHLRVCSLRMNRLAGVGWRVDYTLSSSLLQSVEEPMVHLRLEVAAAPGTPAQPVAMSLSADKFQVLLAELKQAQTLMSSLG
UniProt P13073, whole entry, looked up: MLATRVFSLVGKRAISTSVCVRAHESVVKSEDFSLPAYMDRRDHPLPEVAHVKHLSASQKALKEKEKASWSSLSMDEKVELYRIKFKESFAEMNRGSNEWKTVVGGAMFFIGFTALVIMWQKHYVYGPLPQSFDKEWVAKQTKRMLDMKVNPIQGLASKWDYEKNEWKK
UniProt P10606, whole entry, looked up: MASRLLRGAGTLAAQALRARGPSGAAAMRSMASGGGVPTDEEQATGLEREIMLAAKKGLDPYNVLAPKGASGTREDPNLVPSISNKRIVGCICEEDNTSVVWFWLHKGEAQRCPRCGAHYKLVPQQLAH
UniProt Q92828: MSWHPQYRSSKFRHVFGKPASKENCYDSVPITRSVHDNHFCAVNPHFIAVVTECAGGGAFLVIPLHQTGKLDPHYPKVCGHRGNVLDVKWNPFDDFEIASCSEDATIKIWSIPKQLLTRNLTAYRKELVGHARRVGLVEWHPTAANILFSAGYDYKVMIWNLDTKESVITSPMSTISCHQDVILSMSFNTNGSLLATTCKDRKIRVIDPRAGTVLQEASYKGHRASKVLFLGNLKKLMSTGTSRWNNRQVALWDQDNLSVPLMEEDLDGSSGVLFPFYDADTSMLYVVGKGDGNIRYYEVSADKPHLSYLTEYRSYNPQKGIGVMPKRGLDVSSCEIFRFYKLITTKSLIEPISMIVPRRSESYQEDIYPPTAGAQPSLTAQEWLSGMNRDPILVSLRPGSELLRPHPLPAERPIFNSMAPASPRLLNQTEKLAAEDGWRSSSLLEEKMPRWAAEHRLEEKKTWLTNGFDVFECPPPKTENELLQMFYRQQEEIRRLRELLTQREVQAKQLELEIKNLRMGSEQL

Experiments:
Assay in all cases: log2 fold change, soluble protein after heating vs DMSO (PISA); higher = thermal stabilisation; K562 lysate, 10 uM; active = over 0.2 and 3.5 SD of the protein, either way, in both replicates (recomputed)
[1] = compound: C#Cc1cccc(Nc2ncnc3cc(OCCOC)c(OCCOC)cc23)c1 [erlotinib]
Outline: (§1)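 Pellets of K562 cells were dounce-homogenised in PBS pH 7.4 with 1 mM MgCl2, and the crude extract was held at 1 mg/mL protein for a 30 min treatment with 10 μM compound. Aliquots were heated for 3 min over 48°C-58°C and pooled before NP-40 was added to 0.5% at 4°C. The supernatant from 21,000xg for 90 min was quantified by TMTpro 16plex LC-MS/MS with channel sums equalised. Values are reported from duplicates as log-two fold change in thermal stability relative to solvent controls.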

[2] = compound: C/C(=N\NC(=O)C1=CC(=CC=C1)S(=O)(=O)N2CCOCC2)/C3=C(C=CC(=C3)Cl)O
Outline: as §1

[3] = compound: C1=CC(=CC=C1C2=NC3=C(N2)C=C(C=C3)C(=O)N)OC4=CC=C(C=C4)Cl
Outline: as §1

[4] = compound: C1=CC2=C(C=CC(=C2)/C=C\3/C(=O)NC(=NCC4=CC=CS4)S3)N=C1
Outline: as §1

[5] = compound: C1=CC2=NC=CN=C2C=C1/C=C/3\C(=O)NC(=O)S3
Outline: as §1

[6] = compound: C1=CC=C(C=C1)C2=NC(=C(N2)C3=CC=NC=C3)C4=CC(=C(C=C4)Cl)O
Outline: as §1

[7] = compound: C1=CC=C2C(=C1)C3=NNC4=CC=CC(=C43)C2=O
Outline: as §1

[8] = compound: C1CCN(C1)C(=O)NC2=CC=CC(=C2)NC3=NC=C(C(=N3)NCCC4=CN=CN4)Br
Outline: as §1

[9] = compound: C1CN(CCC1(CC2=CC=C(C=C2)Cl)N)C3=NC=NC4=C3C=CN4
Outline: as §1

[10] = compound: C1COCCN1CCN2C3=CC=CC=C3N=C2NC(=O)C4=CC(=CC=C4)[N+](=O)[O-] [IRAK-1-4 Inhibitor I]
Outline: as §1

[11] = compound: C=CC(=O)N1CCC[C@@H](n2nc(-c3ccc(Oc4ccccc4)cc3)c3c(N)ncnc32)C1 [ibrutinib]
Outline: as §1

[12] = compound: CC(=O)c1cnc2ccc(-c3cc(Cl)c(O)c(Cl)c3)nc2c1N[C@H]1CC[C@H](CN(C)C)CC1
Outline: as §1

[13] = compound: CC(C)(C)Cn1c(N)nc2ccc(-c3[nH]c(C(C)(C)C)nc3-c3ccc(F)cc3)nc21 [ralimetinib]
Outline: as §1

[14] = compound: CC(C)(O)CC(=O)NCCn1ccc2ncnc(Nc3ccc(Oc4cccc(C(F)(F)F)c4)c(Cl)c3)c21
Outline: as §1

[15] = compound: CC(C)C1=C2N=C(C=C(N2N=C1)NCC3=CC=CC=C3)NCCCCCCN
Outline: as §1

[16] = compound: CC1=C(C(CC(=O)N1)C2=CC=C(C=C2)C(F)(F)F)C(=O)NC3=C(C=C4C(=C3)C=NN4)F
Outline: as §1

[17] = compound: CC1=C(C2=C(C=C1)C(=O)C3=CC=CC=C3N2CCCN)C
Outline: as §1

[18] = compound: CC1=C(C=C(C=C1)NC(=O)C2=CC(=CC=C2)C(C)(C)C#N)NC3=CC4=C(C=C3)N=CN(C4=O)C
Outline: as §1

[19] = compound: CC1=C(C=C(C=C1)NC(=O)C2=CC(=CC=C2)N(C)C)NC(=O)C3=CC=C(C=C3)O
Outline: as §1

[20] = compound: CC1=CC=C(C=C1)SC2=C3C=C(SC3=CN=C2)C(=O)N
Outline: as §1

Measured: log2 fold change

COPS7B isoform 3 (UniProt Q9H9Q2)
inactive: [1] 0.007 | [2] -0.03 | [3] 0.069 | [4] 0.019 | [5] -0.007 | [6] 0.02 | [7] 0 | [8] 0.045 | [9] -0.009 | [10] -0.005 | [11] 0.002 | [12] -0.039 | [13] -0.009 | [14] -0.032 | [15] -0.013 | [16] -0.007 | [17] 0.017 | [18] 0.032 | [19] -0.016 | [20] -0.051

COMMD9 (UniProt Q9P000)
inactive: [1] 0.056 | [2] -0.079 | [3] -0.005 | [4] 0.002 | [5] -0.05 | [6] 0.013 | [7] 0.026 | [8] -0.037 | [9] 0.128 | [10] 0.002 | [11] 0.023 | [12] -0.052 | [13] 0.024 | [14] -0.054 | [15] 0.058 | [16] -0.14 | [17] -0.035 | [18] 0.065 | [19] -0.014 | [20] 0.052

COPRS (UniProt Q9NQ92)
inactive: [1] -0.052 | [2] 0.019 | [3] 0.086 | [4] 0.007 | [5] -0.097 | [6] 0.027 | [7] -0.048 | [8] -0.049 | [9] 0.033 | [10] 0.021 | [11] 0.141 | [12] 0.059 | [13] 0.076 | [14] -0.006 | [15] 0.009 | [16] 0.082 | [17] 0.016 | [18] -0.005 | [19] -0.004 | [20] 0.15

COMMD2 (UniProt Q86X83)
inactive: [1] 0.043 | [2] -0.074 | [3] -0.055 | [4] 0.02 | [5] 0.028 | [6] -0.054 | [7] -0.044 | [8] 0.006 | [9] -0.033 | [10] 0.045 | [11] -0.022 | [12] -0.037 | [13] 0.058 | [14] -0.007 | [15] -0.001 | [16] 0.02 | [17] 0.009 | [18] 0.003 | [19] 0.012 | [20] 0.049

COTL1 (UniProt Q14019)
inactive: [1] -0.012 | [2] 0.04 | [3] 0.013 | [4] -0.006 | [5] -0.02 | [6] 0 | [7] 0.004 | [8] 0.022 | [9] 0.008 | [10] -0.03 | [11] 0.038 | [12] 0.001 | [13] -0.025 | [14] 0.049 | [15] -0.007 | [16] -0.055 | [17] 0.02 | [18] -0.019 | [19] -0.015 | [20] -0.004

COL18A1 (UniProt P39060)
inactive: [1] -0.053 | [2] -0.192 | [3] 0.008 | [4] 0.069 | [5] 0.01 | [6] 0.042 | [7] -0.026 | [8] -0.049 | [9] 0.04 | [10] -0.013 | [11] 0.021 | [12] -0.016 | [13] -0.043 | [14] 0.04 | [15] -0.045 | [16] 0.041 | [17] 0.07 | [18] -0.051 | [19] 0.027 | [20] -0.076

COX7C (UniProt P15954)
inactive: [1] -0.055 | [2] -0.004 | [3] -0.064 | [4] 0.003 | [5] 0.046 | [6] 0.038 | [7] 0.027 | [8] -0.177 | [9] 0.153 | [10] -0.015 | [11] -0.11 | [12] -0.004 | [13] 0.062 | [14] -0.029 | [15] 0.037 | [16] -0.038 | [17] -0.033 | [18] 0.012 | [19] -0.065 | [20] -0.001

COL6A5 (UniProt A8TX70)
inactive: [1] 0.064 | [2] 0.161 | [3] 0.02 | [4] -0.062 | [5] -0.167 | [6] 0.027 | [7] 0.014 | [8] 0.014 | [9] -0.052 | [10] 0.046 | [11] 0.046 | [12] -0.023 | [13] -0.083 | [14] -0.141 | [15] 0.018 | [16] 0.063 | [17] -0.038 | [18] 0.108 | [19] -0.011 | [20] -0.053

COPG2 (UniProt Q9UBF2)
inactive: [1] -0.004 | [2] -0.007 | [3] 0.011 | [4] 0 | [5] 0.007 | [6] -0.002 | [7] -0.012 | [8] 0.002 | [9] 0.025 | [10] 0.014 | [11] 0.009 | [12] -0.003 | [13] -0.004 | [14] -0.005 | [15] -0.006 | [16] 0.008 | [17] -0.007 | [18] -0.002 | [19] -0.002 | [20] 0.006

CRADD (UniProt P78560)
inactive: [1] 0.052 | [2] 0.027 | [3] -0.076 | [4] -0.032 | [5] 0.025 | [6] 0.051 | [7] 0.03 | [8] -0.074 | [9] -0.01 | [10] 0.046 | [11] 0.072 | [12] -0.005 | [13] 0.012 | [14] -0.093 | [15] -0.036 | [16] -0.004 | [17] -0.003 | [18] -0.009 | [19] 0.023 | [20] 0.046

CNIH4 (UniProt Q9P003)
inactive: [1] 0.049 | [2] -0.139 | [3] -0.06 | [4] 0.129 | [5] -0.071 | [6] -0.022 | [7] -0.162 | [8] 0.01 | [9] -0.131 | [10] -0.078 | [11] 0.13 | [12] -0.014 | [13] 0.006 | [14] -0.152 | [15] 0.278 | [16] 0.066 | [17] -0.115 | [18] -0.008 | [19] 0.211 | [20] -0.024

COMMD4 (UniProt Q9H0A8)
inactive: [1] -0.095 | [2] -0.042 | [3] -0.03 | [4] 0.036 | [5] 0.046 | [6] 0.084 | [7] -0.002 | [8] -0.071 | [9] 0.035 | [10] -0.029 | [11] 0.032 | [12] 0.001 | [13] 0.018 | [14] 0.05 | [15] -0.001 | [16] 0.049 | [17] -0.051 | [18] -0.022 | [19] 0.021 | [20] 0.032

COX4I1 (UniProt P13073)
inactive: [1] 0.001 | [2] 0.033 | [3] 0.008 | [4] -0.008 | [5] 0.011 | [6] 0.005 | [7] 0.026 | [8] 0.018 | [9] 0.019 | [10] 0.014 | [11] 0.032 | [12] -0.015 | [13] 0.028 | [14] -0.015 | [15] 0.007 | [16] -0.045 | [17] -0.014 | [18] 0 | [19] -0.008 | [20] 0.015

COPS7B (UniProt Q9H9Q2)
inactive: [1] -0.025 | [2] 0.082 | [3] 0.095 | [4] 0.006 | [5] 0.011 | [6] 0.004 | [7] 0.006 | [8] -0.102 | [9] 0.052 | [10] -0.046 | [11] 0.03 | [12] -0.036 | [13] -0.011 | [14] 0.066 | [15] -0.076 | [16] -0.02 | [17] -0.035 | [18] -0.007 | [19] 0.017 | [20] -0.015

Two consecutive entries already listed, for reference:
CNIH4 (UniProt Q9P003)
inactive: [1] 0.049 | [2] -0.139 | [3] -0.06 | [4] 0.129 | [5] -0.071 | [6] -0.022 | [7] -0.162 | [8] 0.01 | [9] -0.131 | [10] -0.078 | [11] 0.13 | [12] -0.014 | [13] 0.006 | [14] -0.152 | [15] 0.278 | [16] 0.066 | [17] -0.115 | [18] -0.008 | [19] 0.211 | [20] -0.024

COMMD4 (UniProt Q9H0A8)
inactive: [1] -0.095 | [2] -0.042 | [3] -0.03 | [4] 0.036 | [5] 0.046 | [6] 0.084 | [7] -0.002 | [8] -0.071 | [9] 0.035 | [10] -0.029 | [11] 0.032 | [12] 0.001 | [13] 0.018 | [14] 0.05 | [15] -0.001 | [16] 0.049 | [17] -0.051 | [18] -0.022 | [19] 0.021 | [20] 0.032

Continued.

COX5B (UniProt P10606)
inactive: [1] 0.059 | [2] 0.046 | [3] -0.054 | [4] 0.056 | [5] -0.034 | [6] 0.007 | [7] 0.076 | [8] -0.001 | [9] 0.094 | [10] -0.014 | [11] 0.113 | [12] -0.074 | [13] -0.041 | [14] 0.086 | [15] -0.025 | [16] -0.046 | [17] -0.027 | [18] 0.13 | [19] 0.034 | [20] 0.069

CORO2A (UniProt Q92828)
inactive: [1] -0.118 | [2] 0.033 | [3] -0.082 | [4] 0.097 | [5] -0.025 | [6] 0.013 | [7] -0.047 | [8] -0.089 | [9] -0.029 | [10] -0.041 | [11] 0.076 | [12] -0.006 | [13] 0.007 | [14] 0.02 | [15] 0.049 | [16] -0.016 | [17] -0.113 | [18] -0.002 | [19] 0.009 | [20] -0.01
